Like-named read-outs stand apart in the source and are kept apart here. No constants are given. Whether binding was seen depends on the method and setting. In cells and extracts the contact can be indirect. Here binding means that the protein was enriched with, or labelled near, the bait; the list need not be complete. For some assays here: Sequences can lack the tags named with a protein.

Amino acid sequences for entries named in this document (tags omitted).
UniProt Q07120: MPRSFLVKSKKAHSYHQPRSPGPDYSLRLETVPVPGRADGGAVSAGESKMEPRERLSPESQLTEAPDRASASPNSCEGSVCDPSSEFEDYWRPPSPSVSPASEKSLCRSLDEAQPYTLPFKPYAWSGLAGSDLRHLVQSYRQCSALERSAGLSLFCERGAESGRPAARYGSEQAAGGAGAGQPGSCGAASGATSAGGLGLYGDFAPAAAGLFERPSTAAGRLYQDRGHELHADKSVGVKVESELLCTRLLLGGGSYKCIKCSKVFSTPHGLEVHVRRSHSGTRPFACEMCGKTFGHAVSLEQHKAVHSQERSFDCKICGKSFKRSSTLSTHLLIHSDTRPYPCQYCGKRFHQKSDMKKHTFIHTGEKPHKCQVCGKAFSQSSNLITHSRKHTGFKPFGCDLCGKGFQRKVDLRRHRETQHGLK
UniProt Q9UKL0: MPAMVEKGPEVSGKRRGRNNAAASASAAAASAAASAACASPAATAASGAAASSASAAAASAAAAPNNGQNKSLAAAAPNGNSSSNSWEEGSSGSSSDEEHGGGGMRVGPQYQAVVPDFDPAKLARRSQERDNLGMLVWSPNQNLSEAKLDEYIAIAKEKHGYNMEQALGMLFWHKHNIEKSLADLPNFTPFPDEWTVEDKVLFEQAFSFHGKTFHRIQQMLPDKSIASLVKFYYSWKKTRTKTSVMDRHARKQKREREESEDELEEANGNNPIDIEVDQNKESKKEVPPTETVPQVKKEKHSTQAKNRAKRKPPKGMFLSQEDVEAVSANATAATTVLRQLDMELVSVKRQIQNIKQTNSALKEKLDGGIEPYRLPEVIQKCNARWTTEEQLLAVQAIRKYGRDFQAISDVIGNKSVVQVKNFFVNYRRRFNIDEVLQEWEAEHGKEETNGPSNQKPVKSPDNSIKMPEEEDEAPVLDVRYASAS
UniProt Q9H165: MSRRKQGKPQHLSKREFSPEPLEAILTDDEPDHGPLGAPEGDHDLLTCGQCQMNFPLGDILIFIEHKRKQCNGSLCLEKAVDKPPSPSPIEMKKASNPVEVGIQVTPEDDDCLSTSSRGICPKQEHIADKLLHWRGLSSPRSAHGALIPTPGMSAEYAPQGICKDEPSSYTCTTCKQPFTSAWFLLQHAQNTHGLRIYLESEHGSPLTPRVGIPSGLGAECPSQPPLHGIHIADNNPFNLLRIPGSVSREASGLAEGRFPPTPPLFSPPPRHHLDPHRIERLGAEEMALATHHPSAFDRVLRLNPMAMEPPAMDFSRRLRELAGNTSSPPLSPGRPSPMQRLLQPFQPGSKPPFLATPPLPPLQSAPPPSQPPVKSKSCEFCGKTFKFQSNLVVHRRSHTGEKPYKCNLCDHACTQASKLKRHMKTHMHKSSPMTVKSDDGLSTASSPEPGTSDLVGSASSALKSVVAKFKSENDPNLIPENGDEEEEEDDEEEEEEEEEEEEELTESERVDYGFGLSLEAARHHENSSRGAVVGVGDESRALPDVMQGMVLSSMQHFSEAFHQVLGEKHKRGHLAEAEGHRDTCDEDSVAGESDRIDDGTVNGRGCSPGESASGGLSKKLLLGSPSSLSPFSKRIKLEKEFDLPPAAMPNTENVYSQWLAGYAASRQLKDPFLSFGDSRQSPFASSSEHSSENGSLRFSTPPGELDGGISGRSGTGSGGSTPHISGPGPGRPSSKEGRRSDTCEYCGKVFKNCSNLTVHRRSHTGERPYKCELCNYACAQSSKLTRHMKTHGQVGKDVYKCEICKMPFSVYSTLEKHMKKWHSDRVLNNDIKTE

The target in assay [1] is GFI1-BirA*-HA (wild type), doxycycline-inducible in CCRF-CEM cells (rat) (UniProt Q07120). The assay is described as follows: proximity labelling.
For assay [2] the target is unchanged. Nature of the assay: proximity labelling. The source holds these as a separate data set.

For “CoREST (RCOR1) (from UniProt Q9UKL0 1-485)”, the binding entry in assay [1] is recorded as “binds”.
The same measure, in the same setting: next, BCL11A (from UniProt Q9H165 1-835): “binds”.

B1: GSE1 (protein, UniProt Q14687 1-1217)
chain: MKGMSHEPKSPSLGMLSTATRTTATVNPLTPSPLNGALVPSGSPATSSALSAQAAPSSSFAAALRKLAKQAEEPRGSSLSSESSPVSSPATNHSSPASTPKRVPMGPIIVPPGGHSVPSTPPVVTIAPTKTVNGVWRSESRQDAGSRSSSGGRERLIVEPPLPQEKAGGPAIPSHLLSTPYPFGLSPSSVVQDSRFPPLNLQRPVHHVVPPSTVTEDYLRSFRPYHTTDDLRMSSLPPLGLDPATAAAYYHPSYLAPHPFPHPAFRMDDSYCLSALRSPFYPIPTPGSLPPLHPSAMHLHLSGVRYPPELSHSSLAALHSERMSGLSAERLQMDEELRREREREREREREREADREREKEREREREKEREQEKEREREKERERELERQREQRAREKELLAAKALEPSFLPVAELHGLRGHATEERGKPSEQLTPTRAEKLKDAGLQAPKPVQHPLHPVPTPHHTVPSLISNHGIFSLPSSSAATALLIQRTNEEEKWLARQRRLRQEKEDRQSQVSEFRQQVLEQHLDMGRPPVPAEAEHRPESTTRPGPNRHEPGGRDPPQHFGGPPPLISPKPQLHAAPTALWNPVSLMDNTLETRRAESHSLHSHPAAFEPSRQAAVPLVKVERVFCPEKAEEGPRKREPAPLDKYQPPPPPPREGGSLEHQPFLPGPGPFLAELEKSTQTILGQQRASLPQAATFGELSGPLKPGSPYRPPVPRAPDPAYIYDEFLQQRRRLVSKLDLEERRRREAQEKGYYYDLDDSYDESDEEEVRAHLRCVAEQPPLKLDTSSEKLEFLQLFGLTTQQQKEELVAQKRRKRRRMLRERSPSPPTIQSKRQTPSPRLALSTRYSPDEMNNSPNFEEKKKFLTIFNLTHISAEKRKDKERLVEMLRAMKQKALSAAVADSLTNSPRDSPAVSLSEPATQQASLDVEKPVGVAASLSDIPKAAEPGKLEQVRPQELSRVQELAPASGEKARLSEAPGGKKSLSMLHYIRGAAPKDIPVPLSHSTNGKSKPWEPFVAEEFAHQFHESVLQSTQKALQKHKGSVAVLSAEQNHKVDTSVHYNIPELQSSSRAPPPQHNGQQEPPTARKGPPTQELDRDSEEEEEEDDEDGEDEEEVPKRKWQGIEAVFEAYQEHIEEQNLERQVLQTQCRRLEARHYSLSLTAEQLSHSVAELRSQKQKMVSERERLQAELDHLRKCLALPAMHWPRGYLKGYPR
Regarding B1, the binding result in assay [2] is given as “binds”.

B2: HMG20B (protein, UniProt Q9P0W2 1-317)
chain: MSHGPKQPGAAAAPAGGKAPGQHGGFVVTVKQERGEGPRAGEKGSHEEEPVKKRGWPKGKKRKKILPNGPKAPVTGYVRFLNERREQIRTRHPDLPFPEITKMLGAEWSKLQPTEKQRYLDEAEREKQQYMKELRAYQQSEAYKMCTEKIQEKKIKKEDSSSGLMNTLLNGHKGGDCDGFSTFDVPIFTEEFLDQNKAREAELRRLRKMNVAFEEQNAVLQRHTQSMSSARERLEQELALEERRTLALQQQLQAVRQALTASFASLPVPGTGETPTLGTLDFYMARLHGAIERDPAQHEKLIVRIKEILAQVASEHL
For the molecule B2, the binding result in assay [2] was “binds”.

B3: STAG1 (protein, UniProt Q8WVM7 1-1258)
chain: MITSELPVLQDSTNETTAHSDAGSELEETEVKGKRKRGRPGRPPSTNKKPRKSPGEKSRIEAGIRGAGRGRANGHPQQNGEGEPVTLFEVVKLGKSAMQSVVDDWIESYKQDRDIALLDLINFFIQCSGCRGTVRIEMFRNMQNAEIIRKMTEEFDEDSGDYPLTMPGPQWKKFRSNFCEFIGVLIRQCQYSIIYDEYMMDTVISLLTGLSDSQVRAFRHTSTLAAMKLMTALVNVALNLSIHQDNTQRQYEAERNKMIGKRANERLELLLQKRKELQENQDEIENMMNSIFKGIFVHRYRDAIAEIRAICIEEIGVWMKMYSDAFLNDSYLKYVGWTLHDRQGEVRLKCLKALQSLYTNRELFPKLELFTNRFKDRIVSMTLDKEYDVAVEAIRLVTLILHGSEEALSNEDCENVYHLVYSAHRPVAVAAGEFLHKKLFSRHDPQAEEALAKRRGRNSPNGNLIRMLVLFFLESELHEHAAYLVDSLWESSQELLKDWECMTELLLEEPVQGEEAMSDRQESALIELMVCTIRQAAEAHPPVGRGTGKRVLTAKERKTQIDDRNKLTEHFIITLPMLLSKYSADAEKVANLLQIPQYFDLEIYSTGRMEKHLDALLKQIKFVVEKHVESDVLEACSKTYSILCSEEYTIQNRVDIARSQLIDEFVDRFNHSVEDLLQEGEEADDDDIYNVLSTLKRLTSFHNAHDLTKWDLFGNCYRLLKTGIEHGAMPEQIVVQALQCSHYSILWQLVKITDGSPSKEDLLVLRKTVKSFLAVCQQCLSNVNTPVKEQAFMLLCDLLMIFSHQLMTGGREGLQPLVFNPDTGLQSELLSFVMDHVFIDQDEENQSMEGDEEDEANKIEALHKRRNLLAAFSKLIIYDIVDMHAAADIFKHYMKYYNDYGDIIKETLSKTRQIDKIQCAKTLILSLQQLFNELVQEQGPNLDRTSAHVSGIKELARRFALTFGLDQIKTREAVATLHKDGIEFAFKYQNQKGQEYPPPNLAFLEVLSEFSSKLLRQDKKTVHSYLEKFLTEQMMERREDVWLPLISYRNSLVTGGEDDRMSVNSGSSSSKTSSVRNKKGRPPLHKKRVEDESLDNTWLNRTDTMIQTPGPLPAPQLTSTVLRENSRPMGDQIQEPESEHGSEPDFLHNPQMQISWLGQPKLEDLNRKDRTGMNYMKVRTGVRHAVRGLMEEDAEPIFEDVMMSSRSQLEDMNEEFEDTMVIDLPPSRNRRERAELRPDFFDSAAIIEDDSGFGMPMF
With B3, the binding entry in assay [2] is “binds”.

Values taken from paper doi:10.1101/2021.03.08.434336.
